This passage reports binding results from PMC3035606, “Structural Basis of Response Regulator Dephosphorylation by Rap Phosphatases” (PLoS Biology, 2011).

These are yes or no findings as the source states them, for the method shown.

Assay [1] deals with Spo0F (B. subtilis) (UniProt P06628). In words: SEC; gel filtration on Superdex 200 16/70 in buffer E (20 mM Tris-HCl (pH 8.0), 50 mM KCl, 5 mM MgCl2), 4°C; both purified. (SEC sorts molecules by how far they enter the pores of the column.)
Assay [2] deals with selenomethionyl Spo0F-D54E (B. subtilis) (UniProt P06628). Described as above.

B1: Spo0F (natural protein, B. subtilis)
chain: GSMMNEKILIVDDQYGIRILLNEVFNKEGYQTFQAANGLQALDIVTKERPDLVLLDMKIPGMDGIEILKRMKVIDENIRVIIMTAYGELDMIQESKELGALTHFAKPFDIDEIRDAVKKYLPLKSN
notes: two heterologous N-terminal residues (Gly-Ser) derived from the thrombin cleavage signal; Spo0F, B. subtilis strain 168, residues 1-124; The methods name the vector pETDuet-1 but purify over glutathione resin and remove a GST tag; also called Spo0FA; Spo0FB; source: E. coli BL21(DE3), purified (glutathione resin, thrombin, Source 15Q and HiTrap Heparin flow-through, Superdex 200); …
Consider B1, for which the binding entry in assay [1] is given as “no binding”.

B2: selenomethionyl Spo0F-D54E (natural protein, B. subtilis)
chain: GSMMNEKILIVDDQYGIRILLNEVFNKEGYQTFQAANGLQALDIVTKERPDLVLLEMKIPGMDGIEILKRMKVIDENIRVIIMTAYGELDMIQESKELGALTHFAKPFDIDEIRDAVKKYLPLKSN
modifications: selenomethionyl (selenomethionine derivatized)
notes: two heterologous N-terminal residues (Gly-Ser) derived from the thrombin cleavage signal; purified in an identical manner to Spo0F; Spo0F, B. subtilis strain 168, residues 1-124, with D54E; Used for SAD phasing; PDB 3Q15 holds the parent (wild-type Spo0F); source: E. coli BL21(DE3), purified as Spo0F (buffer D with 120 mM MgCl2); not shown: GST, N-terminal, cleaved
B2: the binding result in assay [2] is “no binding”.
